{"source": "patent US8481095B2", "about": "“Method for anti-oxidation, inhibiting activity and/or expression of matrix metalloproteinase, and/or inhibiting phosporylation of mitogen-activated protein kinase using flemingia macrophylla extract” (China Medical University, priority 2010, dated 2013)", "test_system": "bacterial collagenase", "assay": "Inhibition test of collagenase activity (agar gel medium)", "assay_type": "biochemical", "settings": "100 μg/mL, mean ± SD of three tests", "note": "At least one structure is not confirmed: it was looked up by name or label, or the drawing left a doubt."}
{"smiles": "C[C@H]1c2cccc(O)c2C(=O)C2=C(O)[C@]3(O)C(=O)C(C(N)=O)=C(O)[C@@H](N(C)C)[C@@H]3[C@@H](O)[C@@H]21", "note": "[doxycycline]", "values": [{"measurement": "Inhibition Rate (%) on collagenase", "result": "100.3 ± 5.4", "unit": "%"}]}
